{"source": "PubChem BioAssay AID1508600", "about": "(Functional Genomics Laboratory (NCATS/FGL), 2020)", "note": "Out of some 53,000 sequences screened, about 3,700 (7%) were called active.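 How the source made its calls: active means gene knockdowns whose robust z-score for IL-1 alpha signal is at least 2 or at most -2, so actives lie on both sides; inactive means the rest.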 This is one part of the list.", "data": [{"test": "Components of the Cytosolic LPS Sensing Pathway: Gene Identification via Genome-wide siRNA Screen;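 further: robust z of the log signal after scaling to non-targeting control siRNA wells of the plate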", "details": "RAW264.7 macrophages, IL-1a HTRF, actives lie on both sides, screened at 100 nM (by protocol), cells primed 5 h with Pam3CSK4 first", "procedure,_shortened": "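Knockdown: 100 nM siRNA, 48h, RAW264.7. Stimulation: Pam3CSK4 5 h, then LipidA via TransIT-TKO 24 h. Output: supernatant IL-1a HTRF, negative-control-normalized, log robust z-score; viability by CellTiter-Glo.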", "values": [{"sequence": "GGACACAUUCAUCUUAACATT against Twistnb", "z-score": "inactive: -1.12"}, {"sequence": "GGGUCUUCCUUUCCUAUGATT against Msi2", "z-score": "inactive: -1.97"}, {"sequence": "GGUUUUUCAGCUUUGGAACTT against Decr1", "z-score": "inactive: -0.822"}, {"sequence": "CCCGGACCUUGAAUAAGCATT against Piwil4", "z-score": "inactive: -1.06"}, {"sequence": "GGCCAAGGAUAUUCAGUAUTT against Timp4", "z-score": "inactive: -0.156"}, {"sequence": "GCCAGACUGGAGGUAAAAUTT against Serpinb10", "z-score": "active: -2.24"}, {"sequence": "GGUUGCUAUCAACCUUUAATT against A530016L24Rik", "z-score": "inactive: 0.62"}, {"sequence": "GGUCAAAACAUGUCCAAACTT against Vmn1r63", "z-score": "inactive: 1.27"}, {"sequence": "GGCUGACAAGGAGAGCUUCTT against Pim3", "z-score": "inactive: -0.112"}, {"sequence": "GGCAGUCGAUUUAUAACUCTT against Clic5", "z-score": "inactive: 0.74"}, {"sequence": "GCUGAUGAAGGUGAUACGUTT against Pnma2", "z-score": "inactive: -0.7"}, {"sequence": "GCUUAUCUAUUGAGAGAGATT against Hs3st3b1", "z-score": "inactive: -0.597"}, {"sequence": "CCUAAAGUCCUUAGUCACATT against Zfp397", "z-score": "inactive: -0.305"}, {"sequence": "GGCCUUGGCAUCUAUUUAUTT against Tcf12", "z-score": "inactive: 1.22"}, {"sequence": "GCUAAGGUCUGUUAAACGCTT against Hyal3", "z-score": "inactive: 0.695"}, {"sequence": "GGCUCUGGAAAAGAACAACTT against Sds", "z-score": "inactive: 1.52"}, {"sequence": "GGAAGAUUAUCUCUUUUGATT against Olfr1214", "z-score": "inactive: 0.929"}, {"sequence": "GGAAGACAUGAAAUUGUUCTT against Psma3", "z-score": "active: -2.69"}, {"sequence": "GGAGAAUGGCAUUUUUGAGTT against Pkp3", "z-score": "inactive: -1.6"}, {"sequence": "GGAAAAAGAGGCCAAAAAGTT against Arid4a", "z-score": "inactive: -0.221"}, {"sequence": "GGAAGGCAACUCUUAGAAUTT against Olfr491", "z-score": "inactive: -0.135"}, {"sequence": "CCAGGAUUACAUCCGGACATT against Srbd1", "z-score": "inactive: -0.379"}, {"sequence": "GGAUACACACAGAGAAUAUTT against Arhgef10l", "z-score": "inactive: 0.161"}, {"sequence": "GGAAGUUUUCAGGCAAUUUTT against Dock9", "z-score": "inactive: -0.555"}, {"sequence": "CCGAUUUUGUGGCCUCAUGTT against Emg1", "z-score": "inactive: -0.578"}, {"sequence": "GGAGAAGCCCUGAAUGAAGTT against Pik3c2g", "z-score": "inactive: -0.902"}, {"sequence": "GGAUGAUCCACCGUCAAAATT against Il9", "z-score": "inactive: 0.5"}, {"sequence": "GGACACCACCGACUUUUUUTT against Nr2c2ap", "z-score": "inactive: -0.786"}, {"sequence": "GGGUCAGAUGGUACCAAGATT against Adamts18", "z-score": "inactive: 0.0174"}, {"sequence": "GGCUCAUUUAACUCCAUGCTT against Gatad2a", "z-score": "inactive: -0.892"}, {"sequence": "GGAAAGAAGCAACCACUUCTT against 4833439L19Rik", "z-score": "inactive: 0.403"}, {"sequence": "GGUCAUGCGGAGCAAAGAATT against Sirt5", "z-score": "inactive: -1.22"}, {"sequence": "GGUAACAGUCCUGAAAUACTT against Ugt2a3", "z-score": "inactive: -0.557"}, {"sequence": "GGAUGAUGCCCGAAAGAACTT against Zfp536", "z-score": "active: -4.55"}, {"sequence": "GGCUGAAUGUGAGAAUAGCTT against Map3k14", "z-score": "inactive: -0.382"}, {"sequence": "GGCAUUGAUAAAGAUGGCATT against Grip1", "z-score": "inactive: -1.04"}, {"sequence": "GCUGGAAGAUAGUGCUUUUTT against Itpr1", "z-score": "active: 5.23"}, {"sequence": "GGACUGACAGAGUCACUUGTT against Olfr733", "z-score": "inactive: -1.48"}, {"sequence": "GAUCACAGUCACGAUAUAATT against Klk8", "z-score": "inactive: 0.896"}, {"sequence": "GCUUGUGCGUCCUUUCUGUTT against Nmu", "z-score": "inactive: 0.642"}, {"sequence": "CCUUAUAAAAGCUACGAGGTT against Hsd3b7", "z-score": "inactive: 0.175"}, {"sequence": "GCCAGUCACCAAUUCCAAATT against Eif2a", "z-score": "inactive: 1.1"}, {"sequence": "GCCCAAACGAAAAAUGGCCTT against Abl1", "z-score": "active: 2.95"}, {"sequence": "GGAUGUGAAUCUGCGCAAUTT against Dpep3", "z-score": "inactive: 1"}, {"sequence": "GGUUUGUGCCUUUAUAGUGTT against Ppm1h", "z-score": "inactive: 0.0286"}, {"sequence": "GGACAUAAGUGACAGACAUTT against Chrnb2", "z-score": "inactive: -0.186"}, {"sequence": "GGAUUCAAACCUAAGUUUGTT against Map4", "z-score": "inactive: 0.958"}, {"sequence": "CCUGCUCAUAAUUCUGUGUTT against Olfr855", "z-score": "inactive: 0.309"}, {"sequence": "GGGAUAGGAAAAAGUAACATT against Tmem71", "z-score": "inactive: -1.11"}, {"sequence": "CCCAUAUCCUGUAAAAUACTT against Usp7", "z-score": "inactive: -0.477"}, {"sequence": "CGGUAACUGAGUCAGUUGUTT against Zbtb11os1", "z-score": "inactive: -0.0331"}, {"sequence": "GGACUUAACUAGUUGACAATT against Pclaf", "z-score": "inactive: -1.06"}, {"sequence": "CCCAAGCCUUUAAACGGAGTT against Cbln3", "z-score": "inactive: -0.587"}, {"sequence": "GCAAAACCGGCGUAUGAGATT against Snap47", "z-score": "inactive: 0.472"}, {"sequence": "GGUAUACUUCAAAAGAAGGTT against H2-Q1", "z-score": "inactive: 0.14"}, {"sequence": "GGAUAUCAAGAAGAGCCUGTT against Ptprr", "z-score": "inactive: -1.7"}, {"sequence": "GCCCAGUGUGCAAUUAAACTT against Uvrag", "z-score": "inactive: -1.18"}, {"sequence": "GGCCAAGAUCCAAGACAAGTT against Uba52", "z-score": "inactive: -1.04"}, {"sequence": "CCAAACAUCAAGGAGUUUATT against Ero1b", "z-score": "inactive: 0.723"}, {"sequence": "GUGUGUGUGCAGUCCUCAUTT against Olfr1269", "z-score": "inactive: -0.438"}, {"sequence": "GGAAACGUAUGAACAAUAATT against Sema4f", "z-score": "inactive: 0.896"}, {"sequence": "CCAAAGAUCUCAAAUAAAGTT against Tlk2", "z-score": "inactive: -0.468"}, {"sequence": "GGACUAUGCAGUUUUAUUGTT against Chrac1", "z-score": "inactive: -0.201"}, {"sequence": "GCAAAUUCUCGGUGUCAAATT against Ezh2", "z-score": "inactive: -1.04"}, {"sequence": "GGGUCAACUACUCACACUGTT against Crhr2", "z-score": "inactive: 0.78"}, {"sequence": "GCCCUUACAGUUACCCUUGTT against Aldoc", "z-score": "inactive: 1.78"}, {"sequence": "GGCGAAUUAAUUAACCGCCTT against Abcb10", "z-score": "inactive: 0.798"}, {"sequence": "CGGCUGAACAUGGAACAACTT against Gpc3", "z-score": "inactive: -0.0864"}, {"sequence": "GGUCAUGGAAGAAGCAAAGTT against Sltm", "z-score": "active: 2.08"}, {"sequence": "CUAGCAGGGUCAGAAUGUUTT against Olfr331", "z-score": "inactive: -1.2"}, {"sequence": "GGAAAAAUAUGAGUCUUCCTT against Serpinb2", "z-score": "inactive: 0.621"}, {"sequence": "GGGACAAUACUUUCUUCUATT against Meig1", "z-score": "inactive: 0.0935"}, {"sequence": "GCCAUUUCGUUCUCUGGGUTT against Olfr161", "z-score": "inactive: -0.557"}, {"sequence": "GGUCUCACCAUCUUAACCCTT against Catsper1", "z-score": "inactive: -1.15"}, {"sequence": "GGAUUUGGGUUAGAUCUUUTT against Cpeb3", "z-score": "inactive: 0.862"}, {"sequence": "GGUAGAUGGCAUCUACUAUTT against Josd2", "z-score": "inactive: 0.663"}, {"sequence": "GGAGAACAAAGUCCACACGTT against Lratd1", "z-score": "inactive: 0.894"}, {"sequence": "GGAAAGUCUGUUUUUCACUTT against Adh5", "z-score": "inactive: -0.45"}, {"sequence": "CCACCCGUUUUGUUGUACCTT against Dcaf17", "z-score": "inactive: 0.258"}, {"sequence": "GCUUCAACAUGCUUUGUUUTT against A430010J10Rik", "z-score": "inactive: -0.555"}, {"sequence": "GGCUGAGGAGAUAACCAUATT against Nemp2", "z-score": "inactive: -0.701"}, {"sequence": "GCCACUCUGAUUCUCUAGATT against Cdc25a", "z-score": "inactive: 1.26"}, {"sequence": "GCUUAAAGCUGCCUAAAAATT against Mtres1", "z-score": "inactive: 0.409"}, {"sequence": "GGUUUUCAAUGGAGAAGGATT against Ikzf2", "z-score": "inactive: 0.717"}, {"sequence": "CCUAGCUACAGAACUGUGCTT against Snapin", "z-score": "inactive: -1.1"}, {"sequence": "GGAAGUAUCAAUACUUUCCTT against Pkdrej", "z-score": "inactive: -0.327"}, {"sequence": "GGGCAAGGGCAAGAAAUCUTT against H1f6", "z-score": "inactive: -1.49"}, {"sequence": "GGUAACCGUGUUCUUAUGGTT against Fgf13", "z-score": "inactive: -0.0872"}, {"sequence": "GGCUUUUGACCUCUUCGAUTT against Vav1", "z-score": "inactive: -0.71"}, {"sequence": "GGCAAAUCUCAUGCAUAAUTT against Ahsg", "z-score": "inactive: 0.446"}, {"sequence": "GGAAUUGCACUUUUCCAAUTT against Phlda1", "z-score": "inactive: 0.481"}, {"sequence": "GCUGCUUUCGUGUAGAAUGTT against Snapc1", "z-score": "inactive: 0.803"}, {"sequence": "GGCAAGAGGUAUCAAGGUGTT against Ctsd", "z-score": "inactive: -1.05"}, {"sequence": "GGACAUUGCUAACUGCCUUTT against Snx16", "z-score": "active: 2.37"}, {"sequence": "GGAGGUGCUAACCUAACAGTT against Ggh", "z-score": "inactive: -1.1"}, {"sequence": "GGUACAGAAUAUGUCACAGTT against Olfm3", "z-score": "inactive: 0.627"}, {"sequence": "GGAGGAAUUCCAAUGUUACTT against Meltf", "z-score": "inactive: -0.271"}, {"sequence": "CCUGAAAACCAUGCAAUACTT against Tas2r125", "z-score": "active: -2.37"}, {"sequence": "CCCUGAAUUGCAACCUAUUTT against Olfr867", "z-score": "inactive: 0.371"}, {"sequence": "CUCUUCAACGAGUGUAAAATT against Klra7", "z-score": "inactive: 0.562"}, {"sequence": "GGAGGAAAAGGCAAUCGUUTT against Mtg2", "z-score": "inactive: 0.359"}, {"sequence": "GACCAUUAACUUGAUUUUGTT against Lsm8", "z-score": "inactive: -0.587"}, {"sequence": "GGAACUUAUACAAAAAAGCTT against Spata6", "z-score": "inactive: -0.262"}, {"sequence": "GCGACCAGCAGGUCAAAAUTT against Hoxd12", "z-score": "active: 3.09"}, {"sequence": "GGAGCUCAAGAACAGGAUGTT against Clec3b", "z-score": "inactive: -0.0394"}, {"sequence": "GGAGGCUUUUGUAAAAUCUTT against Me3", "z-score": "inactive: 1.16"}, {"sequence": "GGAUCCUGACUCUCCUCUUTT against Fhl3", "z-score": "inactive: -0.511"}]}]}
